“And” between values parts separate entries of the source, which are not always exact repeats. Equal values may be shown once.
System: PDGFR alpha
Assay: PDGFR alpha peptide library screening (PEPSCAN-based ELISA)
Assay type: binding, human
Conditions: CLIPS peptide library of first three extracellular domains

Row | Molecule | PDGFR alpha epitope, aa residues identified through library screening (ls)
1 | PDGF-BB: human PDGF-BB, natural binding partner (physiological ligand) of PDGFR alpha [reference compound] | 92-106 and 169-183
2 | Vk13B8: recombinant human monoclonal IgG1, VH PAM (SEQ ID No. 3) paired with Vk13B8 VL (SEQ ID No. 4); non-agonistic anti-PDGFR alpha (antibody, listed as Homo sapiens, V domains shown) VH: GLVKPLETLSLTCSVSGGSVSDGSYFWNWIRQPPGKGLEWIGYAYSRGTTNYSPSLKGRITISVDKSKNQISLKLTSVTPADTAVYYCARDSFEIWGQGTMVTV VL: DIQMTQSPSSLSASVGDRVTITCRASQGISNYLAWFQQKPGKAPKSLIYAASSLQSGVPSKFSGSGSGTDFTLTISSLQPEDFATYYCQQYNSFPYTFGQGTKLEIK | 36-50

— patent US9150634B2, “Epitopes of the human PDGF receptor able to bind human auto-antibodies, antibodies and uses thereof” (priority 2010, dated 2015)
